Results as given in PMC10769875.

Amino acid sequences for entries named in this document (tags omitted).
UniProt Q79NI3: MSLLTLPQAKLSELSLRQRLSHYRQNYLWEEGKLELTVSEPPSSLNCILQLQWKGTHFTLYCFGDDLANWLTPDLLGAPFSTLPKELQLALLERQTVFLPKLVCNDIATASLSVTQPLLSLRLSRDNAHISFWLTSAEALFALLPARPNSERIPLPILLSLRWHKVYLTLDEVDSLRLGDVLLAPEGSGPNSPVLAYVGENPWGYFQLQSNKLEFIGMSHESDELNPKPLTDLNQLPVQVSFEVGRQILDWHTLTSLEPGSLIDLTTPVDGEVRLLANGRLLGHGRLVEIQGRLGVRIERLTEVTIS

B1: Effector YopP (protein, UniProt Q93KQ5 1-288)
chain: MIGPISQINSPGGLSEKETSSLISNEELKNIITQLETDIADGSWFHKNYSRTDVKVMPALVTQANNKYPEMNLNFVTSPLDLSIEIKNVIENGVGSSRFIINMGEDGIHFSVIDYKHINGKTSLILFEPANFNSMGPAMLAIRAKTAIERYQLPDCHFSMVEMDIQRSSSECGIFSLALAKKLYTERDNLLKIHEDNIKGILSDGENPLPHDKLDPYLPVTFYKHTQGKKRLNEYLNTNPQGVGTVVNKKNETIFNRFDNNKSIIDGKELSVSVHKKRIAEYKTLLKV
B2: Effector YopT (protein, UniProt P27475 1-322)
chain: MDSIHGHYHIQLSNYSAGENLQSATLTEGVIGAHRVKVETALSHSNRQKKLSATIKHNQSSRSMLDRKLTSDGKANQRSSFTFSMIMYRMIHFVLSTRVPAVRESVANYGGNINFKFAQTKGAFLHQIIKHSDTASGVCEALCAHWIWSHAQGQSLFDQLYVGGRKGKFQIDTLYSIKQLQIDGCKADVDQDEVTLDWFKKKGISERMIERHCLLRPVDVTGTTESEGPDQLLNAILDTHGIGYGYKKIYLSGQMSAHAIAAYVNEKSGVTFFDPNFGEFHFSDKEKFRKWFTNSFWENSMYHYPLGVGQRFSVLTFDSKEV
B3: Effector/gatekeeper SctW/YopN (protein, UniProt P16945 1-293)
chain: MTTLHNLSYGNTPLRNEHPEIASSQIVNQTLGQFRGESVQIVSGTLQSIADMAEEVTFVFSERKELSLDKRKLSDSQARVSDVEEQVNQYLSKVPELKQKQNVSELLSLLSNSPNISLSQLKAYLEGKSEEPSEQFKMLCGLRDALKGRPELAHLLHLVEQALVSMVEEQEEAIVLGARITPEAYRESQSGVNPLQPLRDTYRDAVMGYQGINAIWSDLQKRFPNGDIDSVILFLQKALSADLQSQQSGSEREKLEIVISDLQKLKEFRSVSDQVKGFWQLFSEGITNGLRPF

The binders below were run against miniTurbo-SctQ (Y. enterocolitica) (UniProt Q79NI3) (assay: proximity labelling).

Row | Binder | binding
1 | B1 | binds
2 | B2 | binds
3 | B3 | binds

Results are given in words; binding and its absence hold for the method and conditions named. Binding seen in cells or lysates may run through a third protein. A yes stands for co-enrichment or nearness to the bait. Other partners may have been found.
